According to the supplement of paper PMC10849652:
The other results are listed elsewhere or left out.

Protein sequences, listed by entry. Tags and fused reporters are not part of them. Lines headed by an entry give the natural chain unless they say otherwise; changes in a name come on top.
UniProt P47900: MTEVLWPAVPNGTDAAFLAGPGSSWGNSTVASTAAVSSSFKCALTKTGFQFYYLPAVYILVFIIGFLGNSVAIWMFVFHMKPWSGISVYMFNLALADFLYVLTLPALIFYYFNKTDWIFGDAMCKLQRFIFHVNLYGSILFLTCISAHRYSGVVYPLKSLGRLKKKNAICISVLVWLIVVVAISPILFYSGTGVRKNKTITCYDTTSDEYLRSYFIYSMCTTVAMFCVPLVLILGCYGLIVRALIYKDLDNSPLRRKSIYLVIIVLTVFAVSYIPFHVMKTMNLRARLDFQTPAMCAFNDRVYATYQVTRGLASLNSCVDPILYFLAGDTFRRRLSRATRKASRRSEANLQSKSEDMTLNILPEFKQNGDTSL
UniProt O75781: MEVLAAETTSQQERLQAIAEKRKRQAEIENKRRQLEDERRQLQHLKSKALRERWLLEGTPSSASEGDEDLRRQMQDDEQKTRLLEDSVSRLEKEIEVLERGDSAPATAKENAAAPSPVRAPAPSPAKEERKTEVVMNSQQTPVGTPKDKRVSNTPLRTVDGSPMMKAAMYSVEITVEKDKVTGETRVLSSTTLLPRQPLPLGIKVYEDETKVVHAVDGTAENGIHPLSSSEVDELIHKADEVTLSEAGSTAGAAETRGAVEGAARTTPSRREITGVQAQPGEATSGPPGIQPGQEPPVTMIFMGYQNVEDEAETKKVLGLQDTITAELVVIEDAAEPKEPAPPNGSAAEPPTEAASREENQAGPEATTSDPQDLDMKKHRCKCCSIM
UniProt Q8N573: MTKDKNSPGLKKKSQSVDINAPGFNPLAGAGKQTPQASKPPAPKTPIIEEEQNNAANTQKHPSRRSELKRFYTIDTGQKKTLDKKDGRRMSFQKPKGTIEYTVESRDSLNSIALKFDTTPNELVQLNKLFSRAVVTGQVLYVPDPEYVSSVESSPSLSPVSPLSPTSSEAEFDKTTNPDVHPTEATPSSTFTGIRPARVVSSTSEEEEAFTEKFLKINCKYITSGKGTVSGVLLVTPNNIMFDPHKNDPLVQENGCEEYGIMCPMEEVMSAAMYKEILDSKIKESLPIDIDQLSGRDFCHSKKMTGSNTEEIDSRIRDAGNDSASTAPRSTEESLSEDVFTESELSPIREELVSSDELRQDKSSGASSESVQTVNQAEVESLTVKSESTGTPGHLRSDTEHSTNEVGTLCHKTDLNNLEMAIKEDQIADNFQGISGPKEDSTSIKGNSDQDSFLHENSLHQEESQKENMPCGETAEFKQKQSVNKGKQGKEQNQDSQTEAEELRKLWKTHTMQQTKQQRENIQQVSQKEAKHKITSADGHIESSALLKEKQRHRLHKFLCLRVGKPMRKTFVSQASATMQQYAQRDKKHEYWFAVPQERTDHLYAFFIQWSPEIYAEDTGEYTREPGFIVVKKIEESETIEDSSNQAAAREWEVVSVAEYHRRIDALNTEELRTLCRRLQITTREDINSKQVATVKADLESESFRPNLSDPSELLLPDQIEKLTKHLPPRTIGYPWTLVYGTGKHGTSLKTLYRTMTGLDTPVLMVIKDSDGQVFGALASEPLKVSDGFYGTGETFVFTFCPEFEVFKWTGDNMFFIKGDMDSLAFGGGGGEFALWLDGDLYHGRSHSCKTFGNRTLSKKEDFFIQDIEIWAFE
UniProt Q8N7B6: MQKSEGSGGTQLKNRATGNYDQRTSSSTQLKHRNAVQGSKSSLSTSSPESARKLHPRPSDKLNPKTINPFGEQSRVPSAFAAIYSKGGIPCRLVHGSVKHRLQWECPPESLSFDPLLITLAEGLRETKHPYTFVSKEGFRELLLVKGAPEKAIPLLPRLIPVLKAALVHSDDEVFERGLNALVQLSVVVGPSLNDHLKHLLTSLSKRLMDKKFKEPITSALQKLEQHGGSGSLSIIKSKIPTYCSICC
UniProt Q86VP3, whole entry, looked up: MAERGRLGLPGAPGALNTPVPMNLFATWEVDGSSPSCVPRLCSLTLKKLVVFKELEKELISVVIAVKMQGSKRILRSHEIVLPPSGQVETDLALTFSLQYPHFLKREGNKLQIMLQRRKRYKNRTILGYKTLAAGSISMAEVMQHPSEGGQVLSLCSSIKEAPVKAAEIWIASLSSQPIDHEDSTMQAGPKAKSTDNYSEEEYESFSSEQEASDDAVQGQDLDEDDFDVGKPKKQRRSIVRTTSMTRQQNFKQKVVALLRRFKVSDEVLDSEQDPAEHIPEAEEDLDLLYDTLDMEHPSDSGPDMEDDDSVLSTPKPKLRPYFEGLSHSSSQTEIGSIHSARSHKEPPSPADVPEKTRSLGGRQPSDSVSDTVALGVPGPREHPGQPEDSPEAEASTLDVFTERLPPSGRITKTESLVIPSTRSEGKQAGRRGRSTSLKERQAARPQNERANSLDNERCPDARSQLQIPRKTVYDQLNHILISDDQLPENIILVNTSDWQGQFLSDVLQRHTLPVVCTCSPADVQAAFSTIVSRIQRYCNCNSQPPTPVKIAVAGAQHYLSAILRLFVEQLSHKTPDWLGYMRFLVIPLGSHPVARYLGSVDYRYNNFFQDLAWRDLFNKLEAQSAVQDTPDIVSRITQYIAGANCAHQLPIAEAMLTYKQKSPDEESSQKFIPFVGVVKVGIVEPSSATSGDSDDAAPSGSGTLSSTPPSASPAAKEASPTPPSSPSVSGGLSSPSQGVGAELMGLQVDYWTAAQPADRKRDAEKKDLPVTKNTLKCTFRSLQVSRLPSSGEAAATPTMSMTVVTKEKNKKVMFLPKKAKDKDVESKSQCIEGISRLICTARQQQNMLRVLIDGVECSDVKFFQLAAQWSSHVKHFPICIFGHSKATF
UniProt Q86UD1: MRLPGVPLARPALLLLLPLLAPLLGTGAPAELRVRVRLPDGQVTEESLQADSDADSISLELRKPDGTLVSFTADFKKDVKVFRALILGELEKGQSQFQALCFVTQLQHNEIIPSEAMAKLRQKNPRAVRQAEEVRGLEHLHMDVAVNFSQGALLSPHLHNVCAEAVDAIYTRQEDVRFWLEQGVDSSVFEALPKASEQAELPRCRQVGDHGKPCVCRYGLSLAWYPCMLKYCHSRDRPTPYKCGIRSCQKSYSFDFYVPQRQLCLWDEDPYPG
UniProt Q86WK9: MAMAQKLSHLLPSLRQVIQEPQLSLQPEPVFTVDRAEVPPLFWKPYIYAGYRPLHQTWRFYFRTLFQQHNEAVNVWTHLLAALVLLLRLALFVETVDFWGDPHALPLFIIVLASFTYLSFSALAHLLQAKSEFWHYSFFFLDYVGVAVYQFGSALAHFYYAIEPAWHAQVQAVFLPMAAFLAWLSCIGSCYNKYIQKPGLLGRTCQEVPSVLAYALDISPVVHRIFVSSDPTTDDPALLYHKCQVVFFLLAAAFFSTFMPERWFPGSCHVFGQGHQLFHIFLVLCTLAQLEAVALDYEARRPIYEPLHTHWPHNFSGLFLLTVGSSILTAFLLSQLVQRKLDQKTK
UniProt O75665: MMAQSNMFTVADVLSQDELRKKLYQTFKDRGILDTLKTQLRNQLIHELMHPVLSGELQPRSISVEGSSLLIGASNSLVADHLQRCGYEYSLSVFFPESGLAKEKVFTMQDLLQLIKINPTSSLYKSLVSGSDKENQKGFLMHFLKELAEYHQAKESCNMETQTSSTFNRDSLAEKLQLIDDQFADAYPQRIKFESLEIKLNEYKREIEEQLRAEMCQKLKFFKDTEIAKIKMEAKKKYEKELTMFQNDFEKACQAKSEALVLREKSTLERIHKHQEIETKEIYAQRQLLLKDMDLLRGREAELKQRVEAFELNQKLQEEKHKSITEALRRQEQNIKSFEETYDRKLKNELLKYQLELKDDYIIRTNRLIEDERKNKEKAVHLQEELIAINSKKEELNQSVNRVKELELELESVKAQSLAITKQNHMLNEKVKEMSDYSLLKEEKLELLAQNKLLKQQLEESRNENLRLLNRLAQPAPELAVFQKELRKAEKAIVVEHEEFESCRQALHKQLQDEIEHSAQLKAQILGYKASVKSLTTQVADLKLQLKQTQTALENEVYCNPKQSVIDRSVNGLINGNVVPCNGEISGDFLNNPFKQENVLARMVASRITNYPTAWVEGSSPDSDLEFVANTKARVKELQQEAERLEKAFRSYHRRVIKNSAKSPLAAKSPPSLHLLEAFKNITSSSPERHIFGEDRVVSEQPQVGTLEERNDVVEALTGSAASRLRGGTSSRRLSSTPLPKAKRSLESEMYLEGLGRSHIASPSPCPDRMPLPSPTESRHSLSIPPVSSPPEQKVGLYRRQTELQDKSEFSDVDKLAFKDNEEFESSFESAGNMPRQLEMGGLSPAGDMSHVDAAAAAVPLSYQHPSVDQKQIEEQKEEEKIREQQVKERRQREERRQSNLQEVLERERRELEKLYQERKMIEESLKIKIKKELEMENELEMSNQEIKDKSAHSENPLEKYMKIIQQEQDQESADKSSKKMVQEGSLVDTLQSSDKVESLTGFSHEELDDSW
UniProt Q5BKU9: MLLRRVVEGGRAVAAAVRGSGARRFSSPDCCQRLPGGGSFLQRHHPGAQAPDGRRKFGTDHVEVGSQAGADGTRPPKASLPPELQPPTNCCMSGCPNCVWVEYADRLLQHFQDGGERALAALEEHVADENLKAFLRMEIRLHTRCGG
UniProt Q9Y6K5: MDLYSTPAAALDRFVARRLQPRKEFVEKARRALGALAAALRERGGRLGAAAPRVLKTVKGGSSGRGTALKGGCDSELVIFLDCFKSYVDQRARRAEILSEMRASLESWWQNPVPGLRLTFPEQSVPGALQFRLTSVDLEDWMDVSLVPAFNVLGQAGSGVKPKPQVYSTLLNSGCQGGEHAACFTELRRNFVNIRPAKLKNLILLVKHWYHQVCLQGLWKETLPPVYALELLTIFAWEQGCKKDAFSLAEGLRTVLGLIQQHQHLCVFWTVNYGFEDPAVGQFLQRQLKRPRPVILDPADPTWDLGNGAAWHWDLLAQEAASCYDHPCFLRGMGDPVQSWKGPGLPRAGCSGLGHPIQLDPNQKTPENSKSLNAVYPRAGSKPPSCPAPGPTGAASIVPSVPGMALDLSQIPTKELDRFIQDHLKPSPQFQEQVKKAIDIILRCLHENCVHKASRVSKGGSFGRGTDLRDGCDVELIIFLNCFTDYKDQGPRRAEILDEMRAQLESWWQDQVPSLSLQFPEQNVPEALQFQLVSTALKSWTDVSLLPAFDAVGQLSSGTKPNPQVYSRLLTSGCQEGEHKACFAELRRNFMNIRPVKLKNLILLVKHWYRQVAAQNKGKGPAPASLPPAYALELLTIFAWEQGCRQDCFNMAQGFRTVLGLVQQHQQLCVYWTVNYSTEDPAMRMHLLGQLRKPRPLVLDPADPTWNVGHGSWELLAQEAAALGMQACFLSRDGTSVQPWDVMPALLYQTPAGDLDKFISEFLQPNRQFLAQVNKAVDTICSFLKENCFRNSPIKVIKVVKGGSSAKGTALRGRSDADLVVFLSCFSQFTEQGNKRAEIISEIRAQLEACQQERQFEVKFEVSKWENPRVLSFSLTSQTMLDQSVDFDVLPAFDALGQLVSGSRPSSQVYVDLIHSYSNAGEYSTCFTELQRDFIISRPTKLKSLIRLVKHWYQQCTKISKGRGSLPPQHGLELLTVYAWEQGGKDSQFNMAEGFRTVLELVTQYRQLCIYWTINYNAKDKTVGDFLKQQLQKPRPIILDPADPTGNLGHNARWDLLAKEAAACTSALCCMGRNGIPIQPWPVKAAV
UniProt Q9BWT3: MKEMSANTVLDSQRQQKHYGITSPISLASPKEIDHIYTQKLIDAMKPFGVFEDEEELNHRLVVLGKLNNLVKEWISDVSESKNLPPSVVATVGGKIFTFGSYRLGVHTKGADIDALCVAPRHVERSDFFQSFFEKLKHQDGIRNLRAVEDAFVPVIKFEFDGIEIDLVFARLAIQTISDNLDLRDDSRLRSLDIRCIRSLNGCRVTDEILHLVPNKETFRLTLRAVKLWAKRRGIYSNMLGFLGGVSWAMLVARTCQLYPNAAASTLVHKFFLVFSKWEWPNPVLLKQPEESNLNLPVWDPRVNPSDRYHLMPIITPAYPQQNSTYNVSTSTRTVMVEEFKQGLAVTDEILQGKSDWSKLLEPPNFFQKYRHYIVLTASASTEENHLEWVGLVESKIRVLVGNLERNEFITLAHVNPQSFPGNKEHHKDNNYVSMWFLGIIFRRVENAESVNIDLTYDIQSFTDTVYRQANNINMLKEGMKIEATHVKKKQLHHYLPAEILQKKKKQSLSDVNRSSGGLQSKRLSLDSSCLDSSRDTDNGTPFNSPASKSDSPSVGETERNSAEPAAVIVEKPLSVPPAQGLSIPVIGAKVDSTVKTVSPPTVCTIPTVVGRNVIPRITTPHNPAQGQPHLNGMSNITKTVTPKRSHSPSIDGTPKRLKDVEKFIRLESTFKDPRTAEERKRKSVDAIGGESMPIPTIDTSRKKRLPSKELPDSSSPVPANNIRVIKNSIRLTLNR
UniProt Q5JRK9: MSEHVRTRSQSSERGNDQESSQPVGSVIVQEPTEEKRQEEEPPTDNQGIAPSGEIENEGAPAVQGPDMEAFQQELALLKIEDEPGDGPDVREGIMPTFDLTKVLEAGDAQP

How the values were obtained:
Experiment in all cases: log2 fold change, soluble protein after heating vs DMSO (PISA); higher = thermal stabilisation; K562 lysate, 10 uM; active = over 0.2 and 3.5 SD of the protein, either way, in both replicates (recomputed)
ibrutinib = compound: C=CC(=O)N1CCC[C@@H](n2nc(-c3ccc(Oc4ccccc4)cc3)c3c(N)ncnc32)C1 [ibrutinib]
Summary of the method: (§1)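 Pellets of K562 cells were dounce-homogenised in PBS pH 7.4 with 1 mM MgCl2, and the crude extract was held at 1 mg/mL protein for a 30 min treatment with 10 μM compound. Aliquots were heated for 3 min over 48°C-58°C and pooled before NP-40 was added to 0.5% at 4°C. The supernatant from 21,000xg for 90 min was quantified by TMTpro 16plex LC-MS/MS with channel sums equalised. Values are reported from duplicates as log-two fold change in thermal stability relative to solvent controls.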

[1] = compound: CC(=O)c1cnc2ccc(-c3cc(Cl)c(O)c(Cl)c3)nc2c1N[C@H]1CC[C@H](CN(C)C)CC1
Summary of the method: as §1

ralimetinib = compound: CC(C)(C)Cn1c(N)nc2ccc(-c3[nH]c(C(C)(C)C)nc3-c3ccc(F)cc3)nc21 [ralimetinib]
Summary of the method: as §1

[2] = compound: CC(C)(O)CC(=O)NCCn1ccc2ncnc(Nc3ccc(Oc4cccc(C(F)(F)F)c4)c(Cl)c3)c21
Summary of the method: as §1

[3] = compound: CC(C)C1=C2N=C(C=C(N2N=C1)NCC3=CC=CC=C3)NCCCCCCN
Summary of the method: as §1

[4] = compound: CC1=C(C2=C(C=C1)C(=O)C3=CC=CC=C3N2CCCN)C
Summary of the method: as §1

[5] = compound: CC1=C(C=C(C=C1)NC(=O)C2=CC(=CC=C2)N(C)C)NC(=O)C3=CC=C(C=C3)O
Summary of the method: as §1

[6] = compound: CC1=CC=C(C=C1)SC2=C3C=C(SC3=CN=C2)C(=O)N
Summary of the method: as §1

[7] = compound: CCCS(=O)(=O)Nc1ccc(F)c(C(=O)c2c[nH]c3ncc(Cl)cc23)c1F
Summary of the method: as §1

barasertib = compound: CCN(CCCOc1ccc2c(Nc3cc(CC(=O)Nc4cccc(F)c4)[nH]n3)ncnc2c1)CCOP(=O)(O)O [barasertib]
Summary of the method: as §1

[8] = compound: CC[C@@H]1C(=O)N(C)c2cnc(Nc3ccc(C(=O)NC4CCN(C)CC4)cc3OC)nc2N1C1CCCC1
Summary of the method: as §1

volasertib = compound: CC[C@@H]1C(=O)N(C)c2cnc(Nc3ccc(C(=O)N[C@H]4CC[C@H](N5CCN(CC6CC6)CC5)CC4)cc3OC)nc2N1C(C)C [volasertib]
Summary of the method: as §1

[9] = compound: CCn1c(C(=O)N(C2CC2)C2CC2)cc2c3c(ncn3C)c(Nc3cc(C)n(C)n3)nc21
Summary of the method: as §1

[10] = compound: CCn1cc(-c2ccnc3[nH]c(-c4cccc(CN(C)C)c4)cc23)c(-c2ccc(NC(=O)N(C)C)cc2)n1
Summary of the method: as §1

[11] = compound: CN1CCC(CNc2ccc3ncc(-c4cccc(OC(F)(F)F)c4)n3n2)CC1
Summary of the method: as §1

saracatinib = compound: CN1CCN(CCOc2cc(OC3CCOCC3)c3c(Nc4c(Cl)ccc5c4OCO5)ncnc3c2)CC1 [saracatinib]
Summary of the method: as §1

[12] = compound: CC1=C(C=C(C=C1)NC(=O)C2=CC(=CC=C2)C(C)(C)C#N)NC3=CC4=C(C=C3)N=CN(C4=O)C
Summary of the method: as §1

sotrastaurin = compound: CN1CCN(c2nc(C3=C(c4c[nH]c5ccccc45)C(=O)NC3=O)c3ccccc3n2)CC1 [sotrastaurin]
Summary of the method: as §1

[13] = compound: CC1=C(C(CC(=O)N1)C2=CC=C(C=C2)C(F)(F)F)C(=O)NC3=C(C=C4C(=C3)C=NN4)F
Summary of the method: as §1

vemurafenib = compound: CCCS(=O)(=O)Nc1ccc(F)c(C(=O)c2c[nH]c3ncc(-c4ccc(Cl)cc4)cc23)c1F [vemurafenib]
Summary of the method: as §1

Measured: log2 fold change

P2RY1 (UniProt P47900)
inactive: ibrutinib -0.026 | [1] 0.102 | ralimetinib -0.045 | [2] -0.107 | [3] -0.322 | [4] 0.064 | [5] -0.009 | [6] 0.058 | [7] -0.08 | barasertib 0.034 | [8] 0.006 | volasertib -0.111 | [9] 0.022 | [10] 0.057 | [11] 0.093 | saracatinib 0.015

PALM isoform 2 (UniProt O75781)
inactive: [3] -0.104

OXR1 isoform 7 (UniProt Q8N573)
inactive: [10] 0.007 | [11] -0.044

NXT2 isoform 3 (UniProt Q9NPJ8)
inactive: [1] 0.023 | [6] -0.038 | [7] -0.05 | volasertib 0.118 | [10] -0.225 | [11] 0.043

PACRGL (UniProt Q8N7B6)
inactive: [4] 0.103 | [12] 0.211 | [8] 0.086 | [10] 0.245 | [11] -0.063 | saracatinib -0.136 | sotrastaurin -0.311

ORMDL3 (UniProt Q8N138)
inactive: [1] 0.072 | [4] -0.164 | [12] 0.033 | [6] 0.134 | [7] 0.167 | volasertib -0.054 | saracatinib 0.222 | sotrastaurin 0.122

OPA3 isoform 2 (UniProt Q9H6K4)
inactive: [4] 0.15 | [12] -0.088 | saracatinib 0.088 | sotrastaurin 0.023

ORC3 (UniProt Q9UBD5)
inactive: [1] 0.161 | [13] -0.007 | [6] 0.03 | [7] -0.16 | volasertib 0.003 | [10] 0.185 | [11] -0.06

ORMDL1 (UniProt Q9P0S3)
inactive: ibrutinib 0.003 | ralimetinib 0.092 | [2] -0.017 | [3] -0.056 | [13] 0.02 | [4] 0.222 | [12] 0.086 | [5] 0.09 | vemurafenib -0.031 | barasertib 0.024 | [9] 0 | [10] 0.38 | [11] 0.078 | saracatinib 0.181 | sotrastaurin 0.006

OCIAD1 (UniProt D6RDK6)
inactive: [1] 0.007 | [13] -0.106 | [6] -0.031 | vemurafenib 0.15 | [7] -0.039 | [8] -0.048 | volasertib 0.019

P4HB (UniProt I3L0S0)
inactive: [1] 0.204 | [6] -0.132 | [7] 0.068 | volasertib 0.124

P4HA1 isoform 2 (UniProt P13674)
inactive: ibrutinib 0.013 | ralimetinib 0.074 | [2] -0.094 | [3] -0.04 | [12] -0.007 | [5] -0.27 | vemurafenib 0.015 | barasertib -0.02 | [8] 0.007 | [9] 0.055 | [10] -0.076 | [11] 0.081 | sotrastaurin 0.014

PACS2 isoform 2 (UniProt Q86VP3)
inactive: ralimetinib 0.016 | [2] 0.011 | [3] -0.05 | [12] -0.112 | [5] 0.019 | [8] -0.201 | [9] 0.027 | [10] -0.159 | [11] -0.001 | sotrastaurin 0.161

OBSCN isoform 6 (UniProt Q5VST9)
inactive: [1] 0.06 | [3] -0.068 | [6] 0.142 | [7] -0.031 | volasertib -0.121

OAF (UniProt Q86UD1)
inactive: ralimetinib -0.009 | [2] 0.04 | [3] 0.034 | [4] 0.244 | [5] 0.133 | [9] 0.017 | saracatinib 0.202

NXF2 (UniProt Q9GZY0)
inactive: [3] -0.071 | [4] -0.034 | [10] 0.245 | [11] -0.102 | saracatinib -0.134

PAQR7 (UniProt Q86WK9)
inactive: [3] -0.03

Quoted from the results shown (2 entries):
NXF2 (UniProt Q9GZY0)
inactive: [3] -0.071 | [4] -0.034 | [10] 0.245 | [11] -0.102 | saracatinib -0.134

PAQR7 (UniProt Q86WK9)
inactive: [3] -0.03

The results go on:

P3H3 (UniProt Q8IVL6)
inactive: [3] 0.21 | [4] 0.093 | vemurafenib -0.161 | saracatinib 0.18

OFD1 (UniProt O75665)
inactive: ibrutinib 0.152 | ralimetinib -0.085 | [2] 0.136 | [13] -0.2 | [4] 0.079 | [5] 0.049 | vemurafenib -0.043 | barasertib -0.285 | [8] -0.209 | [9] 0.048 | [10] 0.083 | [11] -0.157 | saracatinib 0.083

OGDH isoform 2 (UniProt Q02218)
inactive: [10] -0.251 | [11] -0.08

OS9 isoform 7 (UniProt Q13438)
inactive: [3] -0.028 | [10] -0.114 | [11] 0.096

ORC1 (UniProt Q13415)
inactive: [8] 0.185

OGG1 isoform 4 (UniProt O15527)
inactive: [3] -0.197 | [4] -0.085 | [8] 0.013 | saracatinib -0.023

PAQR4 (UniProt Q8N4S7)
inactive: [3] 0.017

NUP214, A0A494C1F2
inactive: ralimetinib -0.139 | [2] -0.051 | [3] -0.032 | [5] -0.068 | [9] -0.015

ODF2 (UniProt Q5BJF6)
inactive: ibrutinib -0.012 | ralimetinib -0.066 | [2] -0.246 | [3] -0.087 | [13] -0.007 | [4] 0.095 | [12] 0.001 | [5] -0.009 | vemurafenib -0.058 | barasertib 0.112 | [8] 0.121 | [9] 0.157 | [10] -0.107 | [11] -0.027 | saracatinib 0.039 | sotrastaurin 0.093

OXLD1 (UniProt Q5BKU9)
inactive: [1] -0.066 | ralimetinib -0.105 | [2] -0.03 | [13] 0 | [12] 0.146 | [5] 0.007 | [6] 0.033 | [7] -0.103 | volasertib 0.187 | [9] 0.004 | sotrastaurin 0.074

OAS3 (UniProt Q9Y6K5)
inactive: [1] 0.045 | ralimetinib 0.043 | [2] 0.054 | [3] 0.045 | [13] 0.204 | [12] -0.108 | [5] 0.037 | [6] 0.033 | [7] -0.147 | [8] 0.023 | volasertib 0.069 | [9] -0.225 | sotrastaurin 0.109

PAPOLG (UniProt Q9BWT3)
inactive: ralimetinib 0.01 | [2] -0.071 | [3] -0.19 | [13] -0.089 | [4] 0.012 | [12] -0.028 | [5] -0.092 | vemurafenib -0.176 | [8] -0.04 | [9] -0.02 | [10] -0.013 | [11] -0.049 | saracatinib -0.235 | sotrastaurin 0.031

OSBPL9 (UniProt E9PLH0)
inactive: ibrutinib -0.087 | [3] 0.126 | barasertib -0.206

PARD3B (UniProt Q8TEW8)
inactive: [3] 0.091 | [4] 0.071 | [10] 1.46 | [11] -0.046 | saracatinib -0.002

PAN3 (UniProt Q58A45)
inactive: [13] 0.064 | [12] 0.093 | sotrastaurin 0.059

PAGE2B (UniProt Q5JRK9)
inactive: [1] -0.049 | ralimetinib -0.024 | [2] -0.032 | [3] -0.054 | [13] 0.023 | [4] 0.044 | [12] -0.003 | [5] 0.238 | [6] 0.022 | vemurafenib 0.008 | [7] -0.056 | [8] -0.027 | volasertib -0.013 | [9] -0.008 | [10] -0.034 | [11] -0.239 | saracatinib 0.176 | sotrastaurin 0.05

OXR1 isoform 2 (UniProt Q8N573)
inactive: ralimetinib -0.053 | [2] -0.115 | [5] 0.04 | [9] -0.048 | [10] 0.084 | [11] -0.046

PAOX (UniProt Q6QHF9)
inactive: ibrutinib -0.302 | ralimetinib 0.107 | [2] -0.077 | [12] -0.055 | [5] 0.019 | barasertib -0.358 | [9] -0.046 | sotrastaurin 0.093
